Results are given in words; binding and its absence hold for the method and conditions named. In cells and extracts the contact can be indirect. Here binding means that the protein was enriched with, or labelled near, the bait; the list need not be complete. Blank lines part the entries; values can stand above or below the binder they belong to.
Molecular target: HA-tagged TRIAD3B (E3 ubiquitin-protein ligase TRIAD3/RNF216, longest isoform) (human)
Assay: affinity purification with mass spectrometry; HA-TRIAD3B affinity purified from HEK293T lysate on anti-HA magnetic beads, incubated with approx. 5 mg protein of mouse cortex lysate at 4 °C for 5 h, washed 4x in PBS, 0.5% Triton X-100; LC-MS/MS; hits found in 3 of 3 experiments with at least 10-fold enrichment over the HA-control; only the target purified

binding: binds
B1: RNF41 (E3 ubiquitin-protein ligase NRDP1) from mouse cortex lysate (protein, UniProt Q8BH75 1-317)
chain: MGYDVTRFQGDVDEDLICPICSGVLEEPVQAPHCEHAFCNACITQWFSQQQTCPVDRSVVTVAHLRPVPRIMRNMLSKLQIACDNAVFGCSAVVRLDNLMSHLSDCEHNPKRPVTCEQGCGLEMPKDELPNHNCIKHLRSVVQQQQSRIAELEKTSAEHKHQLAEQKRDIQLLKAYMRAIRSVNPNLQNLEETIEYNEILEWVNSLQPARVTRWGGMISTPDAVLQAVIKRSLVESGCPASIVNELIENAHERSWPQGLATLETRQMNRRYYENYVAKRIPGKQAVVVMACENQHMGDDMVQEPGLVMIFAHGVEEI

binding: binds
B2: Ankyrin repeat domain-containing protein 13D (Ankrd13D) from mouse cortex lysate (protein, UniProt Q6PD24 1-605)
chain: MAGLGPTFPLHRLVWANRHRELEAALHSRKHDIEQEDPQGRTPLELAVTLGNLESVRVLLRHNANVGKESHQGWAVLQEAVSTGDPEMVQLVLQYRDFQRATQRLAGIPELLNKLRQAPDFYVEMKWEFTSWVPLVSKMCPSDVYRVWKRGESLRVDTSLLGFEHMTWQRGRRSFIFRGQEAGALVMEVDHDRQVVHTETLAPALHEPEALLAAMRPSEEHVASRLTSPIVSTHLDTRNVAFERNKCGIWGWRSEKMESVSGYEAKVYSATNVELVTRTRTEHLSDQDKLRNKGGKTPFQSFLGMAQQHSSHTLAPVQQAASPTNPTAISAEEYFDPSFSLESRNIGRPIEMSSKVQRFKATLWLSEEHPLSLGDQVTPIIDLMAISNAHFAKLRDFITLRLPPGFPVKIEIPLFHVLNARITFSNLCGCDEPVSSVCVPNSSSAISASGSPFPCEVDPTVFEVPEGYSVLGAERSEPLRDEDDDLLQFAIQQSLLEAGTEAEQVTVWEALTNTRPGIHPPPRVTVFEEQLQLEQALQESLQLSTESRGPESPQKTPPSPAPPSFEEQLRLALELSSREQEELERRGQQEEDDLQRILQLSLTEH

— publication PMC6411869
